Counter-ions that a name gives are not always drawn. The list shows a part of the results. Hit calls seldom repeat between salt and free forms of one compound.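 In K562 cells expressing nanoluciferase-fused kinases, luminescence was recorded at 4 h intervals between 2 and 18 h, normalized as percent of control with DMSO at 100% and a positive control at 0%. A significant (2 sigma) signal drop marks a time point as decreased. The authors' rule for a hit is not shown and takes in more than the number of time points.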
Columns and labels:
Conditions in all cases: K562; 2-18 h
ROR2 = ROR2 (UniProt Q01974); assay: number of time points (of 5) at which kinase-Nluc abundance scored as decreased, DMSO-normalised (count); higher = more persistent destabilization
RPS6KA1 = RPS6KA1 (UniProt Q15418); assay: as above
SPHK1 = SPHK1 (UniProt Q9NYA1); assay: as above
SRC = SRC (UniProt P12931); assay: as above
STK24 = STK24 (UniProt Q9Y6E0); assay: as above
STK38 = STK38 (UniProt Q15208); assay: as above
SYK = SYK (UniProt P43405); assay: as above
TEC = TEC (UniProt P42680); assay: as above
TYK2 = TYK2 (UniProt P29597); assay: as above
ULK3 = ULK3 (UniProt Q6PHR2); assay: as above
YES1 = YES1 (UniProt P07947); assay: as above
ZAK = ZAK (UniProt Q9NYL2); assay: as above
ZAP70 = ZAP70 (UniProt P43403); assay: as above
CDK4 = CDK4 (UniProt P11802); assay: number of time points (of 4; 2 h point missing) at which kinase-Nluc abundance scored as decreased, DMSO-normalised (count); higher = more persistent destabilization
CDK7 = CDK7 (UniProt P50613); assay: as above
CDK9 = CDK9 (UniProt P50750); assay: as above

Chains of the proteins cited; added tags and fusions are not shown. Lines headed by an entry give the natural chain unless they say otherwise; changes in a name come on top.
UniProt Q15418, whole entry: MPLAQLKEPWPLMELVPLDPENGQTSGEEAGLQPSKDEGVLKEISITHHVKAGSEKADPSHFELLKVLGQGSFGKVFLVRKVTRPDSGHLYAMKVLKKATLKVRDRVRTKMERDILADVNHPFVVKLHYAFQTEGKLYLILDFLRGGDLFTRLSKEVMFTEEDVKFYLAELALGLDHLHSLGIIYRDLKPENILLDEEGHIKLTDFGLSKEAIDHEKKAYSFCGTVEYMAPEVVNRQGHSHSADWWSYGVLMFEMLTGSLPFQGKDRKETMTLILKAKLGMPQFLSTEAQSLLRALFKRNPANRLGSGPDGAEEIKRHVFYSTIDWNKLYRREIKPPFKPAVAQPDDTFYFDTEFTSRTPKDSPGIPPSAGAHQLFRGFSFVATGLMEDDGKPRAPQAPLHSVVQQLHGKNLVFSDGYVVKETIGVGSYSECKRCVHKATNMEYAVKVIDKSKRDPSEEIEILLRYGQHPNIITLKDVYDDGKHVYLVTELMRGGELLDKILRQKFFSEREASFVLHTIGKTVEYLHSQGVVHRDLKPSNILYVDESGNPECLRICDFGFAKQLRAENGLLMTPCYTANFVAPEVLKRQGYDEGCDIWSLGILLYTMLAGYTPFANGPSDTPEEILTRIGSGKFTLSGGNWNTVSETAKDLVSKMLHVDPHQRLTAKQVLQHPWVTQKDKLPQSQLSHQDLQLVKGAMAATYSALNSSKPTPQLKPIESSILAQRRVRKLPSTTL
UniProt Q9NYA1, whole entry: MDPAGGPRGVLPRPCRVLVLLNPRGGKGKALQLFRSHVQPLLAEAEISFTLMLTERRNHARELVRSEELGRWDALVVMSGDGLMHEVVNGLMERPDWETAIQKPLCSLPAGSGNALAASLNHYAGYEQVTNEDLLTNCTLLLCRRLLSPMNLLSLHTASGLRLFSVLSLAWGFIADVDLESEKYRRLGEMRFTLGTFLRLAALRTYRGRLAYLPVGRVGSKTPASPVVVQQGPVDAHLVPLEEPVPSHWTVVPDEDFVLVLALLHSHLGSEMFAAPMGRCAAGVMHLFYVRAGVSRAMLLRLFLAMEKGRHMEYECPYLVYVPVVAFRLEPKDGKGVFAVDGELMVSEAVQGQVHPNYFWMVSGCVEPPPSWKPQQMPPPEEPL
UniProt Q9Y6E0: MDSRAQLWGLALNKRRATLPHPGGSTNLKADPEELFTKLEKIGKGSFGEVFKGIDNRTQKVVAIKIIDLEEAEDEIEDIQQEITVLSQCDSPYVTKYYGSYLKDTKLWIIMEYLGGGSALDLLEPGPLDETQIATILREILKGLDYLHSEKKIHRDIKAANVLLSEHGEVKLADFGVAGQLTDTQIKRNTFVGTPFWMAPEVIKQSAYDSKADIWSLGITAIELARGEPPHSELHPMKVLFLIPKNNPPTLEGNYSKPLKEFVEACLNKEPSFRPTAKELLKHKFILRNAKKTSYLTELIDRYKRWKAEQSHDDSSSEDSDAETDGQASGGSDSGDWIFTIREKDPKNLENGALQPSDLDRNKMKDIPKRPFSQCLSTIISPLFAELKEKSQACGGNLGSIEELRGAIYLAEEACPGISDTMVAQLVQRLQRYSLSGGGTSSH
UniProt Q15208: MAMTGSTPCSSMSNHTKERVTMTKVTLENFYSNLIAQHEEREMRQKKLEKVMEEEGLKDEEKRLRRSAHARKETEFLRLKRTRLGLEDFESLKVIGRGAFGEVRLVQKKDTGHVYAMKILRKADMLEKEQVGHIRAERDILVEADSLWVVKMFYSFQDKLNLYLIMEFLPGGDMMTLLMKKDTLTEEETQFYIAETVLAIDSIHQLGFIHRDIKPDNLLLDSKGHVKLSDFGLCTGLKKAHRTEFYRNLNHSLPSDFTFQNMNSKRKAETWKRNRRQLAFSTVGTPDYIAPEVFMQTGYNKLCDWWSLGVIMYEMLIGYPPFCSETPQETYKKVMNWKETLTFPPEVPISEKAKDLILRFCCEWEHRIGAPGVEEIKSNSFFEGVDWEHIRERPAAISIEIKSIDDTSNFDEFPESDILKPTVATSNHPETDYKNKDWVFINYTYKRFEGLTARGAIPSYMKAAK
UniProt P42680: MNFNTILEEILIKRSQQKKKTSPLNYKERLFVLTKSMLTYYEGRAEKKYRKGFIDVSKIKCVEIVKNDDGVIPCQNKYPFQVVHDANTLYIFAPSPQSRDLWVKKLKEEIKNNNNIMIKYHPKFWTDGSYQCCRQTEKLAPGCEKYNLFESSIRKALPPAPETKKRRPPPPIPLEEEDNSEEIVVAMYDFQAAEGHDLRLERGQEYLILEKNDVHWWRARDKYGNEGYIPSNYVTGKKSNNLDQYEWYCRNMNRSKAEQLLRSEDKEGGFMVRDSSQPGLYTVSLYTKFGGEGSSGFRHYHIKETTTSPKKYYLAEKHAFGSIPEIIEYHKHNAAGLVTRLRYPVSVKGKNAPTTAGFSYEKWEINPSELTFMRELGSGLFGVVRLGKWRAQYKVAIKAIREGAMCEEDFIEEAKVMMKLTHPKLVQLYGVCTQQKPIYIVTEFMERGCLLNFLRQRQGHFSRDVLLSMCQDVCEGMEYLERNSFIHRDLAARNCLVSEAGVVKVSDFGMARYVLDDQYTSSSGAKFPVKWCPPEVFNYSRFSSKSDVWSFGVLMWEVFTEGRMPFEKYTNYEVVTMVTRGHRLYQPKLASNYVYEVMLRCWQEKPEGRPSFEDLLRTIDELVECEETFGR
UniProt P29597: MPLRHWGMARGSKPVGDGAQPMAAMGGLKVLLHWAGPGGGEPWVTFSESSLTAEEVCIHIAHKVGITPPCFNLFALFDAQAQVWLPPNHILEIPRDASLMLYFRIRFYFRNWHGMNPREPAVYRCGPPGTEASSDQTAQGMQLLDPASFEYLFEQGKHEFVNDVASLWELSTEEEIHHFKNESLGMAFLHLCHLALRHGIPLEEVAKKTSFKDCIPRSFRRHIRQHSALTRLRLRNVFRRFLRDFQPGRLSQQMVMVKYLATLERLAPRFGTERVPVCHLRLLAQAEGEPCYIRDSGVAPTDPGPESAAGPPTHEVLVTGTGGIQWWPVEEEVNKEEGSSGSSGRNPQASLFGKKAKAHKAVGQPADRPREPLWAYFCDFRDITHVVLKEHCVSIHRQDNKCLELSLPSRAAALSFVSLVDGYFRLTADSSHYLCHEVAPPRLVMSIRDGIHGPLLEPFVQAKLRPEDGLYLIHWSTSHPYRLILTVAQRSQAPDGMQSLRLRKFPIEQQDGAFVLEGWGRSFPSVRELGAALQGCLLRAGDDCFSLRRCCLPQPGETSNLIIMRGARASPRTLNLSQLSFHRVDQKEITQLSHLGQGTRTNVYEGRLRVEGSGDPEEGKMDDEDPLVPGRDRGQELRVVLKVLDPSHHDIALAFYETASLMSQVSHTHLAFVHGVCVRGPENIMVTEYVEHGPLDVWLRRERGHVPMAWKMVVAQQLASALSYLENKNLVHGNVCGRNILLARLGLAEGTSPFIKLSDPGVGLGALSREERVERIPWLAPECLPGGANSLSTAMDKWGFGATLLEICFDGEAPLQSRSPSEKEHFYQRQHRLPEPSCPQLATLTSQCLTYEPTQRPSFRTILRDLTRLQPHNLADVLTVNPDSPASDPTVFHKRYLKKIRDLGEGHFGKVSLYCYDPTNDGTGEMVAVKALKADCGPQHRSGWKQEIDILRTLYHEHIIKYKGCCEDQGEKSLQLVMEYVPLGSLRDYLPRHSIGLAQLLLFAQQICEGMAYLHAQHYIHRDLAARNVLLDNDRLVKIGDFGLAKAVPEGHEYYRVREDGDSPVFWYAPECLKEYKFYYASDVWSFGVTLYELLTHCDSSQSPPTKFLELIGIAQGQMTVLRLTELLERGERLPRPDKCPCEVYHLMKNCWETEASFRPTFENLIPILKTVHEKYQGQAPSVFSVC
UniProt Q6PHR2: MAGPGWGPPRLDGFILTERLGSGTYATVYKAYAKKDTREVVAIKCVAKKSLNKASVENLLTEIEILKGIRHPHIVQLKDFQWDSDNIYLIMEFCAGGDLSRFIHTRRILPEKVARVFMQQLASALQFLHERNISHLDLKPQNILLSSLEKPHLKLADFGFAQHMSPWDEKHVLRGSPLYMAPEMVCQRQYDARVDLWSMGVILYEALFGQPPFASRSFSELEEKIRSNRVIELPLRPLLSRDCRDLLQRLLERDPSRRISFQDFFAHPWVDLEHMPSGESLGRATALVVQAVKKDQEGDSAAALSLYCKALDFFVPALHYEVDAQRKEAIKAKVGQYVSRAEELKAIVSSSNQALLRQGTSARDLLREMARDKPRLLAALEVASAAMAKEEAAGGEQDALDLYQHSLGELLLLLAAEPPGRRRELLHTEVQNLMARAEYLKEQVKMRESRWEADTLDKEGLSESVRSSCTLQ
UniProt P07947, whole entry, looked up: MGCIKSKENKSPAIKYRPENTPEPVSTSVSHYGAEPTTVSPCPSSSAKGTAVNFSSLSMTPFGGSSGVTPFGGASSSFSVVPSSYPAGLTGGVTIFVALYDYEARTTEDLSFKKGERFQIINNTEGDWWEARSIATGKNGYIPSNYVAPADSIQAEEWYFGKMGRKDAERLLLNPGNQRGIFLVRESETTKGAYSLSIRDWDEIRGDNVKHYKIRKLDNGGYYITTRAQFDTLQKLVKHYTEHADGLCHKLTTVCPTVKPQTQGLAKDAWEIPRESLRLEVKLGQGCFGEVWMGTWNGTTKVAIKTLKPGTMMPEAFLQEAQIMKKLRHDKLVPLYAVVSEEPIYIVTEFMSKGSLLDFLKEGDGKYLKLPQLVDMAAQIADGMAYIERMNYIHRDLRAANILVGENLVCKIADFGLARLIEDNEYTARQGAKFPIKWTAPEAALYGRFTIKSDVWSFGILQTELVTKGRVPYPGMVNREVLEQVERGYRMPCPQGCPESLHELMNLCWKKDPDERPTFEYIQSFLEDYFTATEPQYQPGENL
UniProt P43403: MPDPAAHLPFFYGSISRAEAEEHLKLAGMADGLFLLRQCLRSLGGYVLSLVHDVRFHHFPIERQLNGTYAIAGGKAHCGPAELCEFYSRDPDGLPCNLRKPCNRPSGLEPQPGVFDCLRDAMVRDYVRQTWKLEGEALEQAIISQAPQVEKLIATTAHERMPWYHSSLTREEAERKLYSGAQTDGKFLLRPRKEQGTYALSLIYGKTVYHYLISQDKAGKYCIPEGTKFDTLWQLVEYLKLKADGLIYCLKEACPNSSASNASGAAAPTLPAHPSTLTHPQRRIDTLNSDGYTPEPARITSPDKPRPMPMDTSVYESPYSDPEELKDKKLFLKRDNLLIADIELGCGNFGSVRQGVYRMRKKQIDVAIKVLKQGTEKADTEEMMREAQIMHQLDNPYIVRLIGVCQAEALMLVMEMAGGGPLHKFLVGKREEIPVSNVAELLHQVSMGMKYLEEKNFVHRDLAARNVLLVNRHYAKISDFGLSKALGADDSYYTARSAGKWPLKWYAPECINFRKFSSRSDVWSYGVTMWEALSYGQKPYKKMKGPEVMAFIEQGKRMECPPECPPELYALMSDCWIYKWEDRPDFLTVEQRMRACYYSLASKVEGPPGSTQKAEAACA
UniProt P11802: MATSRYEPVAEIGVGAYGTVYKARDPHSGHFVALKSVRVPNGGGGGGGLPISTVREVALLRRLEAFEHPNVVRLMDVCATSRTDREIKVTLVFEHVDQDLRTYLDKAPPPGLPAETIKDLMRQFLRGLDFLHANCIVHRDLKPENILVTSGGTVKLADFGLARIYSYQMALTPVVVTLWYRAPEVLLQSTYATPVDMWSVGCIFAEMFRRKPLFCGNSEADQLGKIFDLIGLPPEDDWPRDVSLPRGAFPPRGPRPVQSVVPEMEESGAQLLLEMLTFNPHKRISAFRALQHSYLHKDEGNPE
UniProt P50613: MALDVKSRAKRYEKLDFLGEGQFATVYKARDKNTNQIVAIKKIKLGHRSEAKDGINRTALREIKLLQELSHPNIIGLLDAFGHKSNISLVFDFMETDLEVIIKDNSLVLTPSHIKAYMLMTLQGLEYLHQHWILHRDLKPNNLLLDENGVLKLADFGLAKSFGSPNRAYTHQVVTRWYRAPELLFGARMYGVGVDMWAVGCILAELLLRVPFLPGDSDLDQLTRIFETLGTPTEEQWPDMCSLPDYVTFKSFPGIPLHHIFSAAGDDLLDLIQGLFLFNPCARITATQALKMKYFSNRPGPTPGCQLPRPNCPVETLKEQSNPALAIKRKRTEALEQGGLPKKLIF
UniProt P50750, whole entry: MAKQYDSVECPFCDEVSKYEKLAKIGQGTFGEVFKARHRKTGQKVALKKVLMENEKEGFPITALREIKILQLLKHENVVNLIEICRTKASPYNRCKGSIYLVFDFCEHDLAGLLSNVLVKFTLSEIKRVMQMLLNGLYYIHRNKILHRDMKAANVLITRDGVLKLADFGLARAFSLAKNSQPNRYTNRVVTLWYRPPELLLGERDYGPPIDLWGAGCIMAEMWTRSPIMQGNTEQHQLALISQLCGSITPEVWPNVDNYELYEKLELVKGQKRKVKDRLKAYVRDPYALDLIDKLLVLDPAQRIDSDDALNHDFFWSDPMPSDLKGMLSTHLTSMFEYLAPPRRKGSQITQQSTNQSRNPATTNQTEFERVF

Measured: number of time points

Fc1ccc2[nH]ccc2c1-c1nc(N2CCOCC2)c2sc(CN3CCN(CC4CC4)CC3)cc2n1 (10 µM)
0: ROR2 | RPS6KA1 | SPHK1 | SRC | STK24 | STK38 | SYK | TEC | TYK2 | ULK3 | YES1 | ZAK | ZAP70 | CDK4 | CDK7 | CDK9

COC(=O)[C@H](CCSC)NC(=O)c1ccc(NC[C@@H](N)CS)cc1-c1ccccc1 [FTI-277 (hydrochloride)] (10 µM)
1: ULK3
0: ROR2 | RPS6KA1 | SPHK1 | SRC | STK24 | STK38 | SYK | TEC | TYK2 | YES1 | ZAK | ZAP70 | CDK4 | CDK7 | CDK9

Cc1cc(C(=O)Nc2nc3cccc(Cl)c3n2[C@@H]2CCCCN(C(=O)/C=C/CN(C)C)C2)ccn1 [Nazartinib] (10 µM)
0: ROR2 | RPS6KA1 | SPHK1 | SRC | STK24 | STK38 | SYK | TEC | TYK2 | ULK3 | YES1 | ZAK | ZAP70 | CDK4 | CDK7 | CDK9

C=CC(=O)Nc1cc(Nc2nccc(-c3cn(C)c4ccccc34)n2)c(OC)cc1N(C)CCNC [AZ7550 Mesylate] (2.5 µM)
2: ULK3
1: CDK7
0: ROR2 | RPS6KA1 | SPHK1 | SRC | STK24 | STK38 | SYK | TEC | TYK2 | YES1 | ZAK | ZAP70 | CDK4 | CDK9

Cc1cc(C(=O)NOCCO)c(Nc2ccc(I)cc2F)n(C)c1=O (10 µM)
0: ROR2 | RPS6KA1 | SPHK1 | SRC | STK24 | STK38 | SYK | TEC | TYK2 | YES1 | ZAK | ZAP70 | CDK4 | CDK7 | CDK9
1: ULK3

Cc1cc(CSc2ccccc2C(=O)NCCNc2ccc(C(F)(F)F)cc2[N+](=O)[O-])on1 (10 µM)
0: ROR2 | RPS6KA1 | SPHK1 | SRC | STK24 | STK38 | SYK | TEC | TYK2 | ULK3 | YES1 | ZAK | ZAP70 | CDK4 | CDK7 | CDK9

COc1cc(N2CCOCC2)ccc1Nc1ncc(F)c(Nc2ccccc2NS(C)(=O)=O)n1 (10 µM)
0: ROR2 | RPS6KA1 | SPHK1 | SRC | STK24 | STK38 | SYK | TEC | TYK2 | ULK3 | YES1 | ZAK | ZAP70 | CDK4 | CDK7 | CDK9

Cc1nn(C)cc1-c1nc2c(N3CCN(Cc4ccc(Cl)cc4)CC3)c(Cl)cnc2[nH]1 (10 µM)
0: ROR2 | RPS6KA1 | SPHK1 | SRC | STK24 | STK38 | SYK | TEC | TYK2 | ULK3 | YES1 | ZAK | ZAP70 | CDK4 | CDK7 | CDK9

O=Nc1c(-c2c(O)[nH]c3cc(Br)ccc23)[nH]c2ccccc12 [GSK 3 Inhibitor IX] (2.5 µM)
0: ROR2 | RPS6KA1 | SPHK1 | SRC | STK24 | STK38 | SYK | TEC | TYK2 | ULK3 | YES1 | ZAK | ZAP70 | CDK4 | CDK7 | CDK9

CC1(N)CCN(c2cccnc2NC(=O)c2nc(-c3ncccc3C(F)(F)F)cnc2N)CC1 [Darovasertib] (10 µM)
0: ROR2 | RPS6KA1 | SPHK1 | SRC | STK24 | STK38 | SYK | TEC | TYK2 | ULK3 | YES1 | ZAK | ZAP70 | CDK4 | CDK7 | CDK9

COc1cc2ncnc(Nc3cccc(I)c3)c2cc1OC (2.5 µM)
0: ROR2 | RPS6KA1 | SPHK1 | SRC | STK24 | STK38 | SYK | TEC | TYK2 | ULK3 | YES1 | ZAK | ZAP70 | CDK4 | CDK7 | CDK9

CCN(CC)CCCC(C)Nc1nc(C)cc(Nc2ccc3nc(C)cc(N)c3c2)n1 (stereo not given) (10 µM)
1: ULK3
0: ROR2 | RPS6KA1 | SPHK1 | SRC | STK24 | STK38 | SYK | TEC | TYK2 | YES1 | ZAK | ZAP70 | CDK4 | CDK7 | CDK9

COc1ccc(-c2cc(=O)c3c(OC)cc(OC)c(OC)c3o2)cc1 [6-Demethoxytangeretin] (10 µM)
0: ROR2 | RPS6KA1 | SPHK1 | SRC | STK24 | STK38 | SYK | TEC | TYK2 | ULK3 | YES1 | ZAK | ZAP70 | CDK4 | CDK7 | CDK9

COc1ccc(Nc2ncc(C(F)(F)F)c(NC3CC3)n2)cc1OC (10 µM)
1: YES1 | CDK7
4: ULK3
0: ROR2 | RPS6KA1 | SPHK1 | SRC | STK24 | STK38 | SYK | TEC | ZAK | ZAP70 | CDK4 | CDK9
3: TYK2

CNC(=O)c1cc2c(Oc3ccc(NC(=O)C4(C(=O)Nc5ccc(F)cc5)CC4)cc3)ccnc2cc1OC (2.5 µM)
2: CDK9
3: TYK2 | ULK3 | CDK7
1: STK38 | YES1 | ZAK
0: ROR2 | RPS6KA1 | SPHK1 | SRC | STK24 | SYK | TEC | ZAP70 | CDK4

CN(C)c1ccc(-c2nc3ncc(Cl)c(N4CCN(CC(=O)Nc5nccs5)CC4)c3[nH]2)cc1 (2 µM)
0: ROR2 | RPS6KA1 | SPHK1 | SRC | STK24 | STK38 | SYK | TEC | TYK2 | ULK3 | YES1 | ZAK | ZAP70 | CDK4 | CDK7 | CDK9

Cn1cc(-c2cc(Oc3cc(F)c(NC(=O)C4(C(=O)Nc5ccccc5)CC4)cc3F)ccn2)cn1 (2.5 µM)
0: ROR2 | RPS6KA1 | SPHK1 | SRC | STK24 | STK38 | SYK | TEC | TYK2 | ULK3 | YES1 | ZAK | ZAP70 | CDK4 | CDK7 | CDK9

CCn1c(-c2nonc2N)nc2c(C#CC(C)(C)O)ncc(OC[C@H]3CCCNC3)c21 (10 µM)
0: ROR2 | RPS6KA1 | SPHK1 | SRC | STK24 | STK38 | SYK | TEC | TYK2 | ULK3 | YES1 | ZAK | ZAP70 | CDK4 | CDK7 | CDK9

Cc1c(Cl)cccc1S(=O)(=O)Nc1nc(NCCc2ccccc2)nc2c1CN(Cc1ccccc1)CC2 (2.5 µM)
5: SPHK1
0: RPS6KA1 | SRC | STK24 | STK38 | SYK | TEC | TYK2 | ULK3 | YES1 | ZAK | ZAP70 | CDK4 | CDK7 | CDK9
1: ROR2

N#Cc1ccc(-c2cnc3ccc(-c4ccc(C(=O)N5CCOCC5)cc4)cn23)cc1 (10 µM)
0: ROR2 | RPS6KA1 | SPHK1 | SRC | STK24 | STK38 | SYK | TEC | TYK2 | ULK3 | YES1 | ZAK | ZAP70 | CDK4 | CDK7 | CDK9

Of the compounds above, 6 contain an aryl methoxy group:
C=CC(=O)Nc1cc(Nc2nccc(-c3cn(C)c4ccccc34)n2)c(OC)cc1N(C)CCNC [AZ7550 Mesylate] (2.5 µM)
2: ULK3
1: CDK7
0: ROR2 | RPS6KA1 | SPHK1 | SRC | STK24 | STK38 | SYK | TEC | TYK2 | YES1 | ZAK | ZAP70 | CDK4 | CDK9

COc1cc(N2CCOCC2)ccc1Nc1ncc(F)c(Nc2ccccc2NS(C)(=O)=O)n1 (10 µM)
0: ROR2 | RPS6KA1 | SPHK1 | SRC | STK24 | STK38 | SYK | TEC | TYK2 | ULK3 | YES1 | ZAK | ZAP70 | CDK4 | CDK7 | CDK9

COc1cc2ncnc(Nc3cccc(I)c3)c2cc1OC (2.5 µM)
0: ROR2 | RPS6KA1 | SPHK1 | SRC | STK24 | STK38 | SYK | TEC | TYK2 | ULK3 | YES1 | ZAK | ZAP70 | CDK4 | CDK7 | CDK9

COc1ccc(-c2cc(=O)c3c(OC)cc(OC)c(OC)c3o2)cc1 [6-Demethoxytangeretin] (10 µM)
0: ROR2 | RPS6KA1 | SPHK1 | SRC | STK24 | STK38 | SYK | TEC | TYK2 | ULK3 | YES1 | ZAK | ZAP70 | CDK4 | CDK7 | CDK9

COc1ccc(Nc2ncc(C(F)(F)F)c(NC3CC3)n2)cc1OC (10 µM)
1: YES1 | CDK7
4: ULK3
0: ROR2 | RPS6KA1 | SPHK1 | SRC | STK24 | STK38 | SYK | TEC | ZAK | ZAP70 | CDK4 | CDK9
3: TYK2

CNC(=O)c1cc2c(Oc3ccc(NC(=O)C4(C(=O)Nc5ccc(F)cc5)CC4)cc3)ccnc2cc1OC (2.5 µM)
2: CDK9
3: TYK2 | ULK3 | CDK7
1: STK38 | YES1 | ZAK
0: ROR2 | RPS6KA1 | SPHK1 | SRC | STK24 | SYK | TEC | ZAP70 | CDK4

Remaining list, next part

COc1cc(-c2cc(OP(=O)(O)O)cc(-c3cc(OC)c(OC)c(OC)c3)c2)cc(OC)c1OC [Stafia-1] (10 µM)
0: ROR2 | RPS6KA1 | SPHK1 | SRC | STK24 | STK38 | SYK | TEC | TYK2 | ULK3 | YES1 | ZAK | ZAP70 | CDK4 | CDK7 | CDK9

O=c1c2c([nH]n1-c1nc3ccccc3s1)CCCC2 (10 µM)
0: ROR2 | RPS6KA1 | SPHK1 | SRC | STK24 | STK38 | SYK | TEC | TYK2 | ULK3 | YES1 | ZAK | ZAP70 | CDK4 | CDK7 | CDK9

C[C@H]1O[C@@H](O[C@H]2CC[C@@]3(C)[C@@H](CC[C@]4(C)[C@@H]3C=C[C@]35OC[C@@]6(CCC(C)(C)C[C@H]63)[C@H](O)C[C@]54C)[C@]2(C)CO)[C@H](O)[C@@H](O[C@@H]2O[C@H](CO)[C@@H](O)[C@H](O)[C@H]2O)[C@H]1O [Saikosaponin D] (2.5 µM)
0: ROR2 | RPS6KA1 | SPHK1 | SRC | STK24 | STK38 | SYK | TEC | ULK3 | YES1 | ZAK | ZAP70 | CDK4 | CDK7 | CDK9
3: TYK2

COc1cc2ncnc(Oc3ccc(CC(=O)Nc4cnn(C(C)C)c4)cc3)c2cc1OC (10 µM)
0: ROR2 | RPS6KA1 | SPHK1 | SRC | STK24 | STK38 | SYK | TEC | TYK2 | YES1 | ZAK | ZAP70 | CDK4 | CDK7 | CDK9
2: ULK3

O=C(NCCN1CCOCC1)Nc1nc2ccc(Sc3nnc4ccc(-c5ccc(F)cc5)nn34)cc2s1 (10 µM)
0: ROR2 | RPS6KA1 | SPHK1 | SRC | STK24 | STK38 | SYK | TEC | TYK2 | ULK3 | YES1 | ZAK | ZAP70 | CDK4 | CDK7
1: CDK9
